The results in this text go back to PubChem BioAssay AID330 (DTP/NCI, 2004).

The subject of the test is P388 leukemia ip, CD2F1 mice, survival T/C. The experiment in a line: NCI In Vivo Anticancer Drug Screen. Data for tumor model P388 Leukemia (intraperitoneal) in CD2F1 (CDF1) mice. Particulars: T/C endpoint: median survival time, higher T/C = longer survival.
The mark [1] stands for this setting: dose: 400.0 mg/kg/injection, schedule: Q04DX003 (ip), vehicle: Klucel (hydroxypropylcellulose) (HPC).
[2] abbreviates: dose: 200.0 mg/kg/injection, schedule: Q01DX005 (ip), vehicle: saline.
Setting [3] is: dose: 200.0 mg/kg/injection, schedule: Q01DX009 (ip), vehicle: Klucel (hydroxypropylcellulose) (HPC).
Where [4] appears, read: dose: 200.0 mg/kg/injection, schedule: Q01DX005 (ip), vehicle: saline with Tween-80.
[5] abbreviates: dose: 400.0 mg/kg/injection, schedule: Q04DX003 (ip), vehicle: saline with Tween-80.
Where [6] appears, read: dose: 100.0 mg/kg/injection, schedule: Q01DX009 (ip), vehicle: other.
[7] abbreviates: dose: 200.0 mg/kg/injection, schedule: Q01DX005 (ip), vehicle: Klucel (hydroxypropylcellulose) (HPC).

The list shows only some results of the screen, not a fair sample: it gathers tests that were run many times, whatever their T/C, doses with no T/C, and many T/C values between a quarter and a half above the control. Other doses and runs of a compound stand elsewhere. T/C gives the treated animals as a percentage of the vehicle group. Some doses have a count of surviving animals in place of a T/C: the source files T/C as zero there, which appears to mark a toxic dose or a test without result, not a measured value. Some doses without a T/C left all or most animals alive at the check, yet need not have been tolerated: the source hardly ever lists a survival T/C far under the control, and the zero likely stands for such cases as well. Survivors were counted at the toxicity check, usually on the fifth day, unless a day is given; later deaths do not show. Schedules are NCI's codes, read here as Q, the interval in days (D) or hours (H), X, the number of doses. Where survival is the endpoint, the PubChem record calls one and a half times the control and up active, and a quarter to a half above the control has no call in these data; cut-offs in other NCI protocols can differ. Some T/C values are followed by the survivors on the day toxicity was checked, most often the fifth; where none is given, no animal had died by that day. Some entries hold several experiments; the results are listed from low to high.

With `C=CCc1cc(OC)c(OCC(=O)O)c(OC)c1`, under setting [1], the survivor count is 3 of 6.

In the case of `CCNC1(N(C)C)N=C(N(C)C)N=C(N(C)C)O1` (stereo not given), the survivor count under setting [2] was 0 of 6.

For `CCCCCCCCCCCCCCCCSC1=CC(=O)C(Cl)=C(Cl)C1=O`, the survivor count is listed as 6 of 6 (dose: 2.5 mg/kg/injection, schedule: Q01DX009 (ip), vehicle: Klucel (hydroxypropylcellulose) (HPC)) and 6 of 6 (dose: 5.0 mg/kg/injection, schedule: Q01DX009 (ip), vehicle: Klucel (hydroxypropylcellulose) (HPC)).

Take `CC(=O)OCc1c(COC(C)=O)c(-c2ccc(Cl)cc2)n2c1CCC2`: the survivor count is, setting by setting: (dose: 100.0 mg/kg/injection, schedule: Q01DX009 (ip), vehicle: Klucel (hydroxypropylcellulose) (HPC)) 6 of 6; under setting [3], 0 of 6.

Regarding `CNCC(OC)c1ccc(O)c(O)c1` (stereo not given), the survivor count is, setting by setting: (dose: 400.0 mg/kg/injection, schedule: Q01DX009 (ip), vehicle: saline) 1 of 6; (dose: 600.0 mg/kg/injection, schedule: Q01DX009 (ip), vehicle: saline) 0 of 6.

Regarding `OC(c1cc(-c2ccc(Cl)cc2)nc2ccccc12)C1CCCCN1` (stereo not given), the survivor count under setting [4] is recorded as 4 of 5.

As to `CCC(=O)NC1=C(Cl)C(=O)C(Cl)=C(Cl)C1=O`, the survivor count is reported as 1 of 6 (dose: 12.5 mg/kg/injection, schedule: Q01DX009 (ip), vehicle: saline with Tween-80); 0 of 6 (dose: 50.0 mg/kg/injection, schedule: Q01DX009 (ip), vehicle: saline with Tween-80); 0 of 6 (dose: 100.0 mg/kg/injection, schedule: Q01DX009 (ip), vehicle: saline with Tween-80); 0 of 6 (dose: 200.0 mg/kg/injection, schedule: Q01DX009 (ip), vehicle: saline with Tween-80).

As for `C=CCNC(=O)SCC`, under setting [4], the survivor count is 0 of 6.

Consider `Cn1nc(N)c2ncc(-c3ccc(Cl)cc3)nc21`, for which, under setting [5], the survivor count was 4 of 6.

Regarding `CC(=O)NC1=CC(=O)c2[nH]c(=O)[nH]c(=O)c2C1=O`, the survivor count runs as follows: (dose: 25.0 mg/kg/injection, schedule: Q01DX005 (ip), vehicle: DMSO) 0 of 6; (dose: 25.0 mg/kg/injection, schedule: Q01DX005 (ip), vehicle: other) 2 of 6; (dose: 50.0 mg/kg/injection, schedule: Q01DX005 (ip), vehicle: DMSO) 0 of 6; (dose: 100.0 mg/kg/injection, schedule: Q01DX005 (ip), vehicle: DMSO) 0 of 6; (dose: 200.0 mg/kg/injection, schedule: Q01DX005 (ip), vehicle: DMSO) 0 of 6.

Regarding `Oc1ccc(CCNCc2ccc3c(c2)OCO3)cc1`, the survivor count under setting [5] is 0 of 6.

As to `N#Cc1ccc(NN=O)nc1`, for the setting “dose: 6.25 mg/kg/injection, schedule: Q01DX009 (ip), vehicle: water”, the T/C was 135 % of control. The survivor count (dose: 50.0 mg/kg/injection, schedule: Q01DX009 (ip), vehicle: water) is reported as 5 of 6.

On to `O=S(=O)(NCCSSCCNS(=O)(=O)c1ccccc1)c1ccccc1`, for which, under setting [6], the survivor count is listed as 6 of 6.

Take `CC(/C=C/C1OC(=O)C=CC1C)=C\C(C)C/C=C/C(C)=C/C(CO)C(=O)C(C)C(O)C(C)C/C(C)=C/C(=O)O` (stereo not given): the T/C (dose: 25.0 micrograms/kg/injection, schedule: Q01DX005 (ip), vehicle: other) was 130 % of control; the T/C (dose: 50.0 micrograms/kg/injection, schedule: Q01DX005 (ip), vehicle: other) is 130 and 139 % of control.

For `O=C1C(=O)c2cccnc2-c2ncccc21`, the survivor count by setting is: (dose: 12.5 mg/kg/injection, schedule: Q01DX005 (ip), vehicle: Klucel (hydroxypropylcellulose) (HPC)) 3 of 6; (dose: 25.0 mg/kg/injection, schedule: Q01DX005 (ip), vehicle: Klucel (hydroxypropylcellulose) (HPC)) 1 of 6; (dose: 50.0 mg/kg/injection, schedule: Q01DX005 (ip), vehicle: Klucel (hydroxypropylcellulose) (HPC)) 0 of 6; (dose: 100.0 mg/kg/injection, schedule: Q01DX005 (ip), vehicle: Klucel (hydroxypropylcellulose) (HPC)) 0 of 6; under setting [7], 0 of 6.

As for `COc1ccc(C=C(C(=O)CCN(C)C)C(=O)CCN(C)C)cc1`, under setting [2], the survivor count is 2 of 5.

As for `Nc1ccc(-c2c3ccccc3nc3cc(N)ccc23)cc1`, the survivor count under setting [2] is 1 of 5.

`CC1(C)CC(c2ccccc2)C(c2ccccc2)C(=O)O1` (stereo not given): the survivor count under setting [1] is 2 of 6.

Turning to `COc1cc(C(c2c(O)c3ccccc3oc2=O)c2c(O)c3ccccc3oc2=O)cc(OC)c1O`, the survivor count (dose: 240.0 mg/kg/injection, schedule: Q01DX005 (ip), vehicle: saline with Tween-80) is given as 3 of 6.

Turning to `[N-]=[N+]=CC(=O)Oc1ccc([N+](=O)[O-])cc1`, the survivor count is 6 of 6 (dose: 50.0 mg/kg/injection, schedule: Q01DX009 (ip), vehicle: other); 6 of 6 under setting [6]; 2 of 6 (dose: 200.0 mg/kg/injection, schedule: Q01DX009 (ip), vehicle: other); 0 of 6 (dose: 400.0 mg/kg/injection, schedule: Q01DX009 (ip), vehicle: other).

Consider `Cn1c(=O)c2c(-c3ccc(Cl)cc3)onc2n(C)c1=O`, for which the survivor count under setting [3] is reported as 2 of 6.

As for `COC1C=C(Cl)C(=O)C(C)O1` (stereo not given), the survivor count was 6 of 6 (dose: 100.0 mg/kg/injection, schedule: Q04DX003 (ip), vehicle: Klucel (hydroxypropylcellulose) (HPC)); 6 of 6 (dose: 200.0 mg/kg/injection, schedule: Q04DX003 (ip), vehicle: Klucel (hydroxypropylcellulose) (HPC)); 1 of 6 under setting [1].

As for `CC(CN(C)C)CN1c2ccccc2Sc2ccccc21` (stereo not given), for the setting “dose: 50.0 mg/kg/injection, schedule: Q04DX003 (ip), vehicle: saline with Tween-80”, the T/C was 129 and 131 % of control [5 of 6 alive]. Besides, the survivor count by setting is: (dose: 75.0 mg/kg/injection, schedule: Q04DX003 (ip), vehicle: saline with Tween-80) 3 of 6; (dose: 100.0 mg/kg/injection, schedule: Q04DX003 (ip), vehicle: saline with Tween-80) 3 of 6; (dose: 200.0 mg/kg/injection, schedule: Q04DX003 (ip), vehicle: saline with Tween-80) 0 of 6.

As for `Oc1cccc([C@@]23CCCC[C@H]2CN(CC2CC2)CC3)c1`, the survivor count under setting [4] is on record as 0 of 6.

Take `Nc1n[nH]c2ccccc12`: the T/C by setting is: under setting [7], 125 % of control; (dose: 400.0 mg/kg/injection, schedule: Q01DX005 (ip), vehicle: Klucel (hydroxypropylcellulose) (HPC)) 131 % of control [5 of 6 alive].

For the compound `CCCCN(CC)CCCCCCCCCCN1CCCc2cc(OC)ccc21`, the survivor count is given as 3 of 5 (dose: 50.0 mg/kg/injection, schedule: Q01DX005 (ip), vehicle: saline with Tween-80) and 0 of 5 under setting [4].

`CCc1cnc2ccccc2c1/C=C/c1ccc(N(C)C)cc1`: the survivor count (dose: 400.0 mg/kg/injection, schedule: Q01DX009 (ip), vehicle: saline with Tween-80) was 5 of 6.

Regarding `COc1cc2c(c3c1c(=O)c1ccccc1n3C)C=C([N+](=O)[O-])C(C)(C)O2`, the survivor count (dose: 24.0 mg/kg/injection, schedule: Q01DX005 (ip), vehicle: saline + Tween-80 + alcohol) was 6 of 6.

For `CCCC1(c2ccccc2)C(=O)NCNC1=O`, the T/C (dose: 60.0 mg/kg/injection, schedule: Q01DX005 (ip), vehicle: Klucel (hydroxypropylcellulose) (HPC)) is 133 % of control and the T/C (dose: 120.0 mg/kg/injection, schedule: Q01DX005 (ip), vehicle: Klucel (hydroxypropylcellulose) (HPC)) is 126 % of control.

As to `COc1c(C#N)c2c(c(OC)c1OC)-c1ccc(OC)c(=O)cc1[C@@H](NC(C)=O)CC2`, the T/C reads like this: (dose: 6.25 mg/kg/injection, schedule: Q01DX009 (ip), vehicle: Klucel (hydroxypropylcellulose) (HPC)) 127 % of control; (dose: 12.5 mg/kg/injection, schedule: Q01DX009 (ip), vehicle: Klucel (hydroxypropylcellulose) (HPC)) 142 % of control. Besides, the survivor count is, setting by setting: (dose: 25.0 mg/kg/injection, schedule: Q01DX009 (ip), vehicle: Klucel (hydroxypropylcellulose) (HPC)) 5 of 6; (dose: 50.0 mg/kg/injection, schedule: Q01DX009 (ip), vehicle: Klucel (hydroxypropylcellulose) (HPC)) 2 of 6.
